{"sequences": {"note": "Sequences of proteins named here, by UniProt entry; tags and fusion partners are left off. A change or cut given only in a name is not applied to a line headed by its entry.", "UniProt Q9Y6R4": "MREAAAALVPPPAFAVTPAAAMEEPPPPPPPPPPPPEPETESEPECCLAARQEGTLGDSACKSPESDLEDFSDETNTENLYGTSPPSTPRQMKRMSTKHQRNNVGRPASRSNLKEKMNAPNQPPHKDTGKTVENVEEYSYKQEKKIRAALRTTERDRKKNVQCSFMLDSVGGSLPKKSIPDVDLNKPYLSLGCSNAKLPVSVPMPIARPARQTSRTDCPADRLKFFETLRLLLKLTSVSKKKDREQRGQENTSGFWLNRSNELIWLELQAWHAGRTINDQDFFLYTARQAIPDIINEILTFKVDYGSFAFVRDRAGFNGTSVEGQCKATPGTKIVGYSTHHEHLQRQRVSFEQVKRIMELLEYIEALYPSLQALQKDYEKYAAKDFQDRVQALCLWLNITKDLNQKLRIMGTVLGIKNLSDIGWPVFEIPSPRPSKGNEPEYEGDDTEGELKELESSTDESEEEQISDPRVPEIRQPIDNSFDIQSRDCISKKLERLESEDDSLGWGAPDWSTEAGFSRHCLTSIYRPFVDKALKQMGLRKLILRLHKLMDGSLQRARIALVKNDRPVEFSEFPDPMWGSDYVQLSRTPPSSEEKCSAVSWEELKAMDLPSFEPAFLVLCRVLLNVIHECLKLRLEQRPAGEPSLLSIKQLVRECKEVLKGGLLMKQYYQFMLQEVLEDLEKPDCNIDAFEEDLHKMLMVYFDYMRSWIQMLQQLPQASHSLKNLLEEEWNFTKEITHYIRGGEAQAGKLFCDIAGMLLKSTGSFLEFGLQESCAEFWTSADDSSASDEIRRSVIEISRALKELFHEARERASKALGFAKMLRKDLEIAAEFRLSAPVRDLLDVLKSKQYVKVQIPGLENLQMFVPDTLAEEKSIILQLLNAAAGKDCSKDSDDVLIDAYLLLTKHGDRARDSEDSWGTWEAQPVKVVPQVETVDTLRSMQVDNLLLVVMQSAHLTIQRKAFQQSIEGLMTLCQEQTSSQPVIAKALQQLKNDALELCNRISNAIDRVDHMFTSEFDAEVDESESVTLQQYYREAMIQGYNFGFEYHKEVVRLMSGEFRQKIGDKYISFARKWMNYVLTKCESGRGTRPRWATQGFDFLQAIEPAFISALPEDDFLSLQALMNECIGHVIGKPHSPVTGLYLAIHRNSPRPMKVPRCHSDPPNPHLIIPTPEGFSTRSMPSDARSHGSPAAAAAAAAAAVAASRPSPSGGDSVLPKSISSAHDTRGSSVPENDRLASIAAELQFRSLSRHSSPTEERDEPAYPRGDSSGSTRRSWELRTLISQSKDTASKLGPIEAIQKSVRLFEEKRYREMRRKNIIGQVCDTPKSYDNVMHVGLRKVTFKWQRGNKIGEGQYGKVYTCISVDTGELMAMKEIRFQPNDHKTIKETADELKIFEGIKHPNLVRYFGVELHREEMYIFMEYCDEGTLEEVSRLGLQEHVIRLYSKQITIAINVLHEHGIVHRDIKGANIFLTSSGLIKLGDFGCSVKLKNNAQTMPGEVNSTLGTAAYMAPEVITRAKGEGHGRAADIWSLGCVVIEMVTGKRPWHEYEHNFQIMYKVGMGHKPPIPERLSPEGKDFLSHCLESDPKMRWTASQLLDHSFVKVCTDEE", "UniProt P27816": "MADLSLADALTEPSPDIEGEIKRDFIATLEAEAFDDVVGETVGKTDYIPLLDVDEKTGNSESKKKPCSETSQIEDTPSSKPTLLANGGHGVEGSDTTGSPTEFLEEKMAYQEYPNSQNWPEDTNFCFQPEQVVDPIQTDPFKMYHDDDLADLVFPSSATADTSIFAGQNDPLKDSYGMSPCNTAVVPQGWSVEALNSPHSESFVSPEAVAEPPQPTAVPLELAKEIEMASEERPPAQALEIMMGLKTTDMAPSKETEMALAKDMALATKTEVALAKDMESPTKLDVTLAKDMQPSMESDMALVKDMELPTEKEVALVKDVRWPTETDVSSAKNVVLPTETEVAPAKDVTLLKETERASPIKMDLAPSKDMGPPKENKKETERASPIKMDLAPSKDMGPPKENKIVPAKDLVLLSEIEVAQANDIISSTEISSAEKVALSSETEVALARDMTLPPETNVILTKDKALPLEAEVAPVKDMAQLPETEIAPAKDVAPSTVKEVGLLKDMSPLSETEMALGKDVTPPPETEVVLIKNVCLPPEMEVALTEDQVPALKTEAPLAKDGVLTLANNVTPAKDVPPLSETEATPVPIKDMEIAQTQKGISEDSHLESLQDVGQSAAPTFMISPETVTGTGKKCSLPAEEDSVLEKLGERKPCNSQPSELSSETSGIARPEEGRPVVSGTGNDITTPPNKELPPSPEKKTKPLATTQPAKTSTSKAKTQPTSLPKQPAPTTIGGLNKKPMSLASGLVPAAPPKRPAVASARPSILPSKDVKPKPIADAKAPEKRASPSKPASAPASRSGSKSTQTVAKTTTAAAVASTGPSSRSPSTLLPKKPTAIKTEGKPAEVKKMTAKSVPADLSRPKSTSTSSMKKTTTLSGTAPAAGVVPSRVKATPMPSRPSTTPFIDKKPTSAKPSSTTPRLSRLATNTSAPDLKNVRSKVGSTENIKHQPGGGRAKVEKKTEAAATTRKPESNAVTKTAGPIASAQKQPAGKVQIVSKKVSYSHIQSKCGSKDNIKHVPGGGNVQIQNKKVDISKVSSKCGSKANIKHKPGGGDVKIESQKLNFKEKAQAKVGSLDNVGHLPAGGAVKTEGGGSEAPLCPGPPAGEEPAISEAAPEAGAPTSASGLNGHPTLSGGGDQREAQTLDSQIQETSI", "UniProt Q9BQ69": "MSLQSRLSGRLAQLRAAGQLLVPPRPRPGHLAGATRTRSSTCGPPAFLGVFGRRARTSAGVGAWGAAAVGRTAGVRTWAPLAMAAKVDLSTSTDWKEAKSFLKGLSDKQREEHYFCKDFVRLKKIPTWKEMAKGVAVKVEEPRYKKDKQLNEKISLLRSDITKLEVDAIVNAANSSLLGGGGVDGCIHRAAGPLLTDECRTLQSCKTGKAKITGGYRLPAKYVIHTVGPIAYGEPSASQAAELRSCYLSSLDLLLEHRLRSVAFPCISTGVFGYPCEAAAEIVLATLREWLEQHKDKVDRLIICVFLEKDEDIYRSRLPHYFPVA", "UniProt Q9NTJ4": "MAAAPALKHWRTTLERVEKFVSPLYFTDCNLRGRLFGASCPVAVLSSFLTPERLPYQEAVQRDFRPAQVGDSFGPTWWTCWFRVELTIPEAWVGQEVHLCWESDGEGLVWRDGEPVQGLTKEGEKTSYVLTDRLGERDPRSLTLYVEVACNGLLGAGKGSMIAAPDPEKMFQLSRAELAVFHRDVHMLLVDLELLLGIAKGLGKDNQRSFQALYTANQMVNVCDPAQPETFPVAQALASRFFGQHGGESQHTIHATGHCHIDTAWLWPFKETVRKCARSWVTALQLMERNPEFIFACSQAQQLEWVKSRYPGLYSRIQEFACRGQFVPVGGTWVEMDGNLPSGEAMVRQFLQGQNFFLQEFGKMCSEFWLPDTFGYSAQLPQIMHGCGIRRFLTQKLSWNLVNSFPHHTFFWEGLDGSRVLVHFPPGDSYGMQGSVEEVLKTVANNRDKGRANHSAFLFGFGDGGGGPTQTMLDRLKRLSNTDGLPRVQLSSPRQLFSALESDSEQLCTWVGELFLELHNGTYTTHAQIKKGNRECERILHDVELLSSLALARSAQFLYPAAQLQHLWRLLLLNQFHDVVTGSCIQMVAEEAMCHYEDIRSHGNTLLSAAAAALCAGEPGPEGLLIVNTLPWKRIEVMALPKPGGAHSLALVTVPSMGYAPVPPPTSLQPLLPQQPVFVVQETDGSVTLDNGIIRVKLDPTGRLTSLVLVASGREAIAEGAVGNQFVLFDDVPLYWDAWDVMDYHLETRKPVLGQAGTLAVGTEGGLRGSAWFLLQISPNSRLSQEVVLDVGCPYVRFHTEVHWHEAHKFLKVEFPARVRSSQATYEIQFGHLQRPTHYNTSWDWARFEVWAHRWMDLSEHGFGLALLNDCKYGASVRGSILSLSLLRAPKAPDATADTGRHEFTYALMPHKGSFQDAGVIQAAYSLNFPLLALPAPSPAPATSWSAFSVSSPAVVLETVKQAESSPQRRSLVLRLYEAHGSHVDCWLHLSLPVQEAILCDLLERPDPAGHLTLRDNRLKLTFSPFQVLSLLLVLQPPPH", "UniProt Q8WWC4": "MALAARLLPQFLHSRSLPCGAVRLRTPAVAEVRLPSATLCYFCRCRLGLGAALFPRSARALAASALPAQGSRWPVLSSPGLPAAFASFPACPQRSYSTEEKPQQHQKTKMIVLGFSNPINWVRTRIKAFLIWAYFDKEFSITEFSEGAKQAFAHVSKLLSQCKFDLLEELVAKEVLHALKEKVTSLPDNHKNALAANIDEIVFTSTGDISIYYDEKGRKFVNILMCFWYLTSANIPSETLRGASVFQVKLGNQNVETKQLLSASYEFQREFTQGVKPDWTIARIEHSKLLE", "UniProt P49137, whole entry, looked up": "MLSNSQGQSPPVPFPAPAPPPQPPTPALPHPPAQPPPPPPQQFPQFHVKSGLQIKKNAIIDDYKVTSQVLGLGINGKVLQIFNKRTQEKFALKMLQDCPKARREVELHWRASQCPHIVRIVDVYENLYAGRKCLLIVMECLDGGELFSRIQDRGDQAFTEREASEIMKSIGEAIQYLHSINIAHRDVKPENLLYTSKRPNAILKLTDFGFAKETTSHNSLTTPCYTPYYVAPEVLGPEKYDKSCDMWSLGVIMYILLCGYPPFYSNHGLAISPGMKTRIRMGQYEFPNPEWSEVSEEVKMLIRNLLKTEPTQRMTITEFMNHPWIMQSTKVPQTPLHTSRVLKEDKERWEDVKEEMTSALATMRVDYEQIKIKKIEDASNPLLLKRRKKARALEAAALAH", "UniProt P45983": "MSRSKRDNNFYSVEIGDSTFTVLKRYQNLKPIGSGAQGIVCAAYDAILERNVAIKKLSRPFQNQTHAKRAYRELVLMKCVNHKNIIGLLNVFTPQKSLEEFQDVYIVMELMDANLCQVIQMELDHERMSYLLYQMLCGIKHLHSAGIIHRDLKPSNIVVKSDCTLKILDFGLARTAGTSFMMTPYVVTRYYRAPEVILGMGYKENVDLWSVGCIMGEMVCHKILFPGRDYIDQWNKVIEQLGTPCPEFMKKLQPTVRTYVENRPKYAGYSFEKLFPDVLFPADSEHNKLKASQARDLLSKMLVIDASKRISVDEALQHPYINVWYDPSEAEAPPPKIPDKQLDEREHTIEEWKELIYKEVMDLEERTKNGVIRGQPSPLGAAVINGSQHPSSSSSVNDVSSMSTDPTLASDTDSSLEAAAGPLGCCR", "UniProt Q66K74": "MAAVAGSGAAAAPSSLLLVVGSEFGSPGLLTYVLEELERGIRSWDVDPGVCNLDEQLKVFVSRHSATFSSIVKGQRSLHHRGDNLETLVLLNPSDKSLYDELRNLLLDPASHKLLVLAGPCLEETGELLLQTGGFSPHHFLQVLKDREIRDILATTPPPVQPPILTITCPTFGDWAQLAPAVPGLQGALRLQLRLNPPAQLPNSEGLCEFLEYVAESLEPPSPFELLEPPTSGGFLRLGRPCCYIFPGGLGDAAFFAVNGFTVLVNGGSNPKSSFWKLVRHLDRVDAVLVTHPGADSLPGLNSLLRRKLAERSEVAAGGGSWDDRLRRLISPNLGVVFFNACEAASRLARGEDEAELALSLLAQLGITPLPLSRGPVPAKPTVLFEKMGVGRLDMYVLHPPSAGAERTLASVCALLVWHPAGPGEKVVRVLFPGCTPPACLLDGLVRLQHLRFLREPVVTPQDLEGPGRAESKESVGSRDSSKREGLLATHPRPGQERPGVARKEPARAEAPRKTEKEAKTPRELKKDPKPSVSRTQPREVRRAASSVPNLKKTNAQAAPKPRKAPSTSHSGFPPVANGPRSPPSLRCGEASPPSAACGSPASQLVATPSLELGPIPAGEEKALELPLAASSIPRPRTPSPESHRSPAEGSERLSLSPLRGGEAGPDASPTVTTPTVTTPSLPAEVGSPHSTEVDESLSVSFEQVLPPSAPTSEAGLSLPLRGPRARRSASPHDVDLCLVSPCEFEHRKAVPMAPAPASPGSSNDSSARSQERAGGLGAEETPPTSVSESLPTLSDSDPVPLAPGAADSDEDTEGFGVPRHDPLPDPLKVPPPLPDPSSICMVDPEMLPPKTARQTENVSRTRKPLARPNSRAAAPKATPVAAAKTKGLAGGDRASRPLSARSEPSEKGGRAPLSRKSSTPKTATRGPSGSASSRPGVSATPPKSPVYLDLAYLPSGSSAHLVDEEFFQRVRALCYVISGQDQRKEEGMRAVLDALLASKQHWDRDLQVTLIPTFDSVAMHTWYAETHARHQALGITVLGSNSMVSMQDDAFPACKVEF", "UniProt Q9NU23": "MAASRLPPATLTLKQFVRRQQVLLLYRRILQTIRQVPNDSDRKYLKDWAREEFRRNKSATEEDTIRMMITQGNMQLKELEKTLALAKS"}, "source": "the supplement of paper PMC10849652", "note": "The list shows a part of the results."}
{"compound": "Cc1sc2c(c1C)C(c1ccc(Cl)cc1)=N[C@@H](CC(=O)OC(C)(C)C)c1nnc(C)n1-2", "assay": "log2 fold change, soluble protein after heating vs DMSO (PISA); higher = thermal stabilisation; K562 cells, 10 uM, 30 min; active = over 0.2 and 3.5 SD of the protein, either way, in both replicates (recomputed)", "how_it_was_run": "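K562 cells at 2×10^6 cells/mL were treated with 10 μM compound for 30 min. Aliquots were heated for 3 min across 48°C-58°C, pooled, and extracted in PBS with 0.5% NP-40 at 4°C; soluble protein was the supernatant after 21,000xg for 90 min. Soluble protein was quantified by TMTpro 16plex LC-MS/MS with channel sums equalised, and reported as log2 fold change in thermal stability against DMSO controls, with values from duplicates.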"}
{"target": "LTBR (UniProt P36941)", "log2 fold change": "inactive: 0.009"}
{"target": "MAP3K4 isoform 2 (UniProt Q9Y6R4)", "log2 fold change": "inactive: -0.034"}
{"target": "LYAR (UniProt Q9NX58)", "log2 fold change": "inactive: 0.255"}
{"target": "LTN1 isoform 3 (UniProt O94822)", "log2 fold change": "inactive: -0.003"}
{"target": "MAP4 (UniProt P27816)", "log2 fold change": "inactive: 0.003"}
{"target": "MACROD1 (UniProt Q9BQ69)", "log2 fold change": "inactive: -0.022"}
{"target": "MAPRE2 (UniProt Q15555)", "log2 fold change": "inactive: -0.068"}
{"target": "LUC7L2 (UniProt Q9Y383)", "log2 fold change": "inactive: 0.006"}
{"target": "MAN2C1 isoform 4 (UniProt Q9NTJ4)", "log2 fold change": "inactive: -0.016"}
{"target": "MAGEB2 (UniProt O15479)", "log2 fold change": "inactive: 0.157"}
{"target": "MACF1 (UniProt Q9UPN3)", "log2 fold change": "inactive: 0.037"}
{"target": "LRRC59 (UniProt Q96AG4)", "log2 fold change": "inactive: -0.008"}
{"target": "MAP3K7 (UniProt O43318)", "log2 fold change": "inactive: 0.061"}
{"target": "MAIP1 (UniProt Q8WWC4)", "log2 fold change": "inactive: -0.026"}
{"target": "MAPKAPK2 (UniProt P49137)", "log2 fold change": "inactive: 0.013"}
{"target": "MAPK8 isoform 3 (UniProt P45983)", "log2 fold change": "inactive: 0.061"}
{"target": "MAP1S (UniProt Q66K74)", "log2 fold change": "inactive: 0.064"}
{"target": "MAN1A1 (UniProt P33908)", "log2 fold change": "inactive: 0.009"}
{"target": "MAGEC1 (UniProt O60732)", "log2 fold change": "inactive: 0.031"}
{"target": "MARK2 (UniProt E9PC69)", "log2 fold change": "inactive: 0.126"}
{"target": "MAP4 (UniProt E7EVA0)", "log2 fold change": "inactive: 0.096"}
{"target": "MAP2K1 (UniProt Q02750)", "log2 fold change": "inactive: -0.015"}
{"target": "LYRM2 (UniProt Q9NU23)", "log2 fold change": "inactive: -0.066"}
